Some of the results follow.
Biological target: OsWRKY34 (Oryza sativa, UniProt Q0JBA9 1-250)
Assay: protein-binding microarray (RPBM); PBS, 2% BSA, 51.3 ng/ul salmon testes DNA, 50 uM zinc acetate, 200 nM TF, 25 C, 1 h; high values mean tight binding
Conditions: protein: recombinant; tags: N-terminal polyhistidine and DsRed monomer fusion (pET32a); label: CyDye5-dUTP incorporated in the synthesized complementary strand; 3' TTTTT single-stranded linker to array surface; dsDNA, one strand shown
Summary of the method: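 The binding signal for each feature is its fluorescence intensity in arbitrary units. An Axon 4000B scanner was used to read a custom Agilent array that had been made double-stranded with Cy5-dUTP primer extension, blocked with 2% BSA, incubated at 25 °C for 1 h with 200 nM protein in PBS, 2% BSA, salmon testes DNA and 50 µM zinc acetate, and washed. The protein was an N-terminal polyhistidine–DsRed transcription factor fusion from E. coli BL21-CodonPlus, purified on Ni–NTA.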

Amino acid sequences for entries named in this document (tags omitted).
UniProt Q0JBA9, entry or part of it: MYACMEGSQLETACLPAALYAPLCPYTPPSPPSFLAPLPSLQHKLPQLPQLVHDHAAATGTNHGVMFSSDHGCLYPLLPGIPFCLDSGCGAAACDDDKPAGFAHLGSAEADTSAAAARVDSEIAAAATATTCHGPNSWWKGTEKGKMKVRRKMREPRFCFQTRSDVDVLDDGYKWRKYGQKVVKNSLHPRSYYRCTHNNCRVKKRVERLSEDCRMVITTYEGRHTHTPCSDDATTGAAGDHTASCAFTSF

Row | Sequence | binding signal
1 | TATTGCTGCTATTATCGACCTGGAATTCTTAACTATTCTTCGGAGTCACCTAGTGCAG | 9610 fluorescence intensity (a.u.)
2 | CATCCCACTGCTTTGCTTTCTCCTGATGCATGATCTCTTTCGGAGTCACCTAGTGCAG | 9900 fluorescence intensity (a.u.)
3 | TCCTATGTTTTTCCTGCGGTCCAATCAAACGGTCATTCTTCGGAGTCACCTAGTGCAG | 12300 fluorescence intensity (a.u.)
4 | CACTTACAGCTGGACCCTATGATGCATGCATTGCATACCACGGAGTCACCTAGTGCAG | 8370 fluorescence intensity (a.u.)
5 | TAGTTCTAGCTGCTGTTCTTGAATCCTTTTATCCACGCTCCGGAGTCACCTAGTGCAG | 8530 fluorescence intensity (a.u.)
6 | AACTCTTTTCTTGTTGCTTCATCGCTTAAAATTTCGCAAACGGAGTCACCTAGTGCAG | 9220 fluorescence intensity (a.u.)
7 | GCCCGGACCATCACACCCAATCGTGGCCGTCCACACCTCCCGGAGTCACCTAGTGCAG | 8460 fluorescence intensity (a.u.)
8 | CGTGTGCCCTATCTCGTTCGTATCAGGCGTGCATCCAAAGCGGAGTCACCTAGTGCAG | 9570 fluorescence intensity (a.u.)
9 | GTGTCTCTCTTCATGCACTCAGTATCCTTCTCATATCATTCGGAGTCACCTAGTGCAG | 10400 fluorescence intensity (a.u.)
10 | GCTGCATTATCTCCTCTCTTCATAATCAGCTGCATGTCTTCGGAGTCACCTAGTGCAG | 8700 fluorescence intensity (a.u.)
11 | AGTCTTGCCTTCCAGACTGCTCTGTCCTGGTGTTGCTGTACGGAGTCACCTAGTGCAG | 8980 fluorescence intensity (a.u.)
12 | AGTTTTGGTTGAATCGATCTGAGCTGTTTGGTTGGGTTTCCGGAGTCACCTAGTGCAG | 12400 fluorescence intensity (a.u.)
13 | AGGAGGCAAGGAACAAGAATCTCTTTCTCTACACCATTTACGGAGTCACCTAGTGCAG | 8280 fluorescence intensity (a.u.)
14 | CCTCACGCAATTCCACAACTGCTGCTCCCACCCTCATCAGCGGAGTCACCTAGTGCAG | 9580 fluorescence intensity (a.u.)
15 | ACAGGAAGGAATAAGGGCAGGGTTGGGTTGGGCCATGTAACGGAGTCACCTAGTGCAG | 14700 fluorescence intensity (a.u.)
16 | ACATACATGCTTGTTTTGCGCTCCGAAGGCACCCACTCACCGGAGTCACCTAGTGCAG | 11500 fluorescence intensity (a.u.)
17 | GTGATGCTGCTATTATACTTGCGAGATACTACTATTTTGTCGGAGTCACCTAGTGCAG | 9370 fluorescence intensity (a.u.)
18 | ACTACCATTTGTACTGTGCTTCTTCAGATTTCAAACTCCCCGGAGTCACCTAGTGCAG | 8230 fluorescence intensity (a.u.)
19 | TTCGTGCTCTTATGATTTACAGATCCACTCAAATCGCTTCCGGAGTCACCTAGTGCAG | 11500 fluorescence intensity (a.u.)
20 | CTCCGCCACGACGTGTCCGCGTCCCGTCCACTCGCCCGATCGGAGTCACCTAGTGCAG | 11200 fluorescence intensity (a.u.)
21 | CCAACACCTCAAGTCTTTGGGTCAACGGTCAACGTTATTACGGAGTCACCTAGTGCAG | 9860 fluorescence intensity (a.u.)
22 | ACACTGTTGAGCACATTTGATTTTCATCGTTCATTTCCCTCGGAGTCACCTAGTGCAG | 8970 fluorescence intensity (a.u.)
23 | CTTAGTACAAGAATCACATCTGCATATCTTCCCTGCAACCCGGAGTCACCTAGTGCAG | 9510 fluorescence intensity (a.u.)
24 | AGGGTTCAAAGGTGGATGGTTGTGATCCAGATCTACTATGCGGAGTCACCTAGTGCAG | 8400 fluorescence intensity (a.u.)
25 | GGAATCCAGATCTCACCCACCCCACCCCACCCACACGACGCGGAGTCACCTAGTGCAG | 8640 fluorescence intensity (a.u.)
26 | TCCATGCACGTCATTTCCTTTTATATCTAGCTATAATTAACGGAGTCACCTAGTGCAG | 8500 fluorescence intensity (a.u.)
27 | ATGTTGGTCTCATTTTCGTTTGCTGCTGGTTACTTGTATTCGGAGTCACCTAGTGCAG | 10800 fluorescence intensity (a.u.)

Fetched one by one from the list above:
Row | Sequence | binding signal
12 | AGTTTTGGTTGAATCGATCTGAGCTGTTTGGTTGGGTTTCCGGAGTCACCTAGTGCAG | 12400 fluorescence intensity (a.u.)
22 | ACACTGTTGAGCACATTTGATTTTCATCGTTCATTTCCCTCGGAGTCACCTAGTGCAG | 8970 fluorescence intensity (a.u.)
5 | TAGTTCTAGCTGCTGTTCTTGAATCCTTTTATCCACGCTCCGGAGTCACCTAGTGCAG | 8530 fluorescence intensity (a.u.)

(list continues)

Row | Sequence | binding signal
28 | CTAACCACGCATCACCTAACTGCAAAAAACGTGTTTTACTCGGAGTCACCTAGTGCAG | 8410 fluorescence intensity (a.u.)
29 | TTAAAGGTTTTTTTATTCCGATAAATTTTCGTTACCGTATCGGAGTCACCTAGTGCAG | 8870 fluorescence intensity (a.u.)
30 | TCTATTCCATCTCCAGCGGCTCTCCACCACCAGGTCCACACGGAGTCACCTAGTGCAG | 8140 fluorescence intensity (a.u.)
31 | TTGTTTCTGCCATCAAGCTTTTCTTTTTCTGACACATGCACGGAGTCACCTAGTGCAG | 9050 fluorescence intensity (a.u.)
32 | CAGTGGGTTGTGGGTGTGGTTGGTCGGCCAGCGCTGGAGCCGGAGTCACCTAGTGCAG | 12600 fluorescence intensity (a.u.)
33 | TTAAGTCGTTTGATTTTTCTTAGTTAAACTTTTTTATATTCGGAGTCACCTAGTGCAG | 8230 fluorescence intensity (a.u.)
34 | ACTATTCATACTTCGAATTTATCTTCTTTTTATATATCTCCGGAGTCACCTAGTGCAG | 9390 fluorescence intensity (a.u.)
35 | ATTCTTTAGTTTGTCTACTTGCATGGTTGTTGTAAAGTCACGGAGTCACCTAGTGCAG | 15200 fluorescence intensity (a.u.)
36 | GTCGAGAGATCGCCTCTTCTTCTGCTTGCCCCGCCGCCTTCGGAGTCACCTAGTGCAG | 8180 fluorescence intensity (a.u.)
37 | TCTCCTATCCAGTTGGATTCCCAAAATTTCGCCTTTCGTCCGGAGTCACCTAGTGCAG | 8070 fluorescence intensity (a.u.)
38 | CTGACGTGGCAGTGTTGACCTGATTTTTGTCCCACGTGGCCGGAGTCACCTAGTGCAG | 10400 fluorescence intensity (a.u.)
39 | TTTGGTAGGGATGTTGTGTTTTCTTTGCGAACACCGGTGACGGAGTCACCTAGTGCAG | 12800 fluorescence intensity (a.u.)
40 | CTTTCGCCTTTTTTTTCACTTTTCTTTTTGTGGTTGTGGGCGGAGTCACCTAGTGCAG | 9790 fluorescence intensity (a.u.)
41 | TGCCTTTCACCCTGGGTTATGCGTATCCTTATCTGAATATCGGAGTCACCTAGTGCAG | 9680 fluorescence intensity (a.u.)
42 | TGCCCTAGTCGCGGCGTTCTGCTGCCCTCGCCGCCGTCCCCGGAGTCACCTAGTGCAG | 8690 fluorescence intensity (a.u.)
43 | TGTGCCGCTCCGTCGTGCTCTTCGTCGCGCCACTCATCCTCGGAGTCACCTAGTGCAG | 9080 fluorescence intensity (a.u.)
44 | GACCGTGCCGTCGTAATCACACTGCCCTGCTGACTAATCTCGGAGTCACCTAGTGCAG | 9260 fluorescence intensity (a.u.)
45 | GATCTCTCCATCTTTTGGCCACCAACTCCACACACTCCAACGGAGTCACCTAGTGCAG | 9260 fluorescence intensity (a.u.)
46 | ACCCTGCCACGTCATATCAAACGGCACATATCTCACAATCCGGAGTCACCTAGTGCAG | 8260 fluorescence intensity (a.u.)
47 | GCTCCGAATGTTATGCTTTCTTTTTTTTAGAACCGAGTCACGGAGTCACCTAGTGCAG | 8580 fluorescence intensity (a.u.)
48 | ACTTACATGTGGGCCCATAACCTTTTTACTTTTTATTTTGCGGAGTCACCTAGTGCAG | 9360 fluorescence intensity (a.u.)
49 | TCTCTCTTTTTTCCCCTGATGTAAAGTTAGTGCATGATGACGGAGTCACCTAGTGCAG | 8220 fluorescence intensity (a.u.)
50 | TGCATTGCCTATCTCTATATATCCATCCACCCATCTCATCCGGAGTCACCTAGTGCAG | 8060 fluorescence intensity (a.u.)
51 | GCTCAACTTTGATCGTATGTCTTATTTGAAATTTTTTTATCGGAGTCACCTAGTGCAG | 9700 fluorescence intensity (a.u.)
52 | TATTCTTGTCTATCATACTCTAGTTATTTACTCAAACTGTCGGAGTCACCTAGTGCAG | 8300 fluorescence intensity (a.u.)
53 | TTTTTCTCGTTTGCCGTGTCACCGCGTGAGTTGCGCGGGGCGGAGTCACCTAGTGCAG | 11700 fluorescence intensity (a.u.)
54 | CCCTCCGCCACCCAAACCCCACCTGCCCGTCTCCATCGCCCGGAGTCACCTAGTGCAG | 9990 fluorescence intensity (a.u.)

Source: paper PMC7819943, “Rice protein-binding microarrays: a tool to detect cis-acting elements near promoter regions in rice”
